Data as given in paper PMC10626665.
No constants are given. Whether binding was seen depends on the method and setting. Binding seen in cells or lysates may run through a third protein. Some results given as binding are weak or reduced against the parent protein; the word gives no strength.

Protein sequences, listed by entry. Tags and fused reporters are not part of them.
UniProt P46940: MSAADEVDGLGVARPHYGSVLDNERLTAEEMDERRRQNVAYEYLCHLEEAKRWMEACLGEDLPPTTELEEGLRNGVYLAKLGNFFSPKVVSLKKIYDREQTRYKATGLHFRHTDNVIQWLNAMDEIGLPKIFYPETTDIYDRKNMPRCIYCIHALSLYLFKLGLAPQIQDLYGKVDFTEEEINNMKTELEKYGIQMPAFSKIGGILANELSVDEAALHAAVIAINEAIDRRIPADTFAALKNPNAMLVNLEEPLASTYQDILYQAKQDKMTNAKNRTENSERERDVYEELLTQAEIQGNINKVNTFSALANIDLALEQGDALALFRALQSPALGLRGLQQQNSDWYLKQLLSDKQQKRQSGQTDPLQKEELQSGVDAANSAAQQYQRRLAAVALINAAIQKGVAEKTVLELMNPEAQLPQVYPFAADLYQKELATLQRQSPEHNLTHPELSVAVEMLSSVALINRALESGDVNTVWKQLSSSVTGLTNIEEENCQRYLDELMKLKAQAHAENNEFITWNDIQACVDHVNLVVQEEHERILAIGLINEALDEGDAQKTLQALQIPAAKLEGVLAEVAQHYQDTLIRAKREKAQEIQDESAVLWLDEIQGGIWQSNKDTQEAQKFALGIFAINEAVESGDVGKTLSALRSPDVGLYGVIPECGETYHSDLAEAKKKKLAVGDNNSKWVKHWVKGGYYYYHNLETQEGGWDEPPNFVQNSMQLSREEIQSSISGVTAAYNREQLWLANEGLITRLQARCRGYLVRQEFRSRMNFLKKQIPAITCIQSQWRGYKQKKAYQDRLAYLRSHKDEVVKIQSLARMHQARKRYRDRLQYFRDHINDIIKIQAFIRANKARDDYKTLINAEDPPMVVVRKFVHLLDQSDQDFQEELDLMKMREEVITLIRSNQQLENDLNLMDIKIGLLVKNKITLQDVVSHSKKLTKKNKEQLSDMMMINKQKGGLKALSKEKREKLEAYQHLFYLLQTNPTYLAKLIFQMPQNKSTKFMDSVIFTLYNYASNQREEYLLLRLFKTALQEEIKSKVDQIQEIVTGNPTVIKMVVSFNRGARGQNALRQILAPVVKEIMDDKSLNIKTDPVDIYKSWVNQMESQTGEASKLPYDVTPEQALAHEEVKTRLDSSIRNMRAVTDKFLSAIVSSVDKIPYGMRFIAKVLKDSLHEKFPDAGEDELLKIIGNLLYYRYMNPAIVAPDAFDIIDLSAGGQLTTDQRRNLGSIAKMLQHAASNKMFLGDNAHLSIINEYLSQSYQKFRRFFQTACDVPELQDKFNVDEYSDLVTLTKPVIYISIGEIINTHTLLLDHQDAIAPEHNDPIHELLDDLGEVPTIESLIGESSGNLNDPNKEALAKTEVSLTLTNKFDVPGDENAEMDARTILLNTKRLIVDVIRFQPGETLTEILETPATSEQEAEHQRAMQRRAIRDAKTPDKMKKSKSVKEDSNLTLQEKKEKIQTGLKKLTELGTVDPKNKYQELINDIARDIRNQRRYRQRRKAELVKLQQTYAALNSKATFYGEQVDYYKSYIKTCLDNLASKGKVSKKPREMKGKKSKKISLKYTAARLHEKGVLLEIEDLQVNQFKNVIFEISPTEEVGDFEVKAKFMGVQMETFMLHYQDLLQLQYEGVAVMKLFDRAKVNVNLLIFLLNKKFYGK

Biological target: T1, MYL9 (human (endogenous in primary CAFs)) (UniProt P24844)
T1 sequence: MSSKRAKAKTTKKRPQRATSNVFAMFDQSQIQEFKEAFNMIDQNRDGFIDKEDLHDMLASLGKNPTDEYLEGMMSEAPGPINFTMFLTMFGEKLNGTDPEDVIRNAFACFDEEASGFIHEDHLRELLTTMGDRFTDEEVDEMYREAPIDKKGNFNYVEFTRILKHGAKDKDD
Experiment: co-IP; target antibody and Protein A + G agarose added to the supernatant of a RIPA lysate, overnight at 4 C; which protein was precipitated not given

IQGAP1 (from UniProt P46940 1-1657)
binding: binds
